The list shows a part of the results.

Amino acid sequences for entries named in this document (tags omitted).
UniProt Q0JBA9, entry or part of it: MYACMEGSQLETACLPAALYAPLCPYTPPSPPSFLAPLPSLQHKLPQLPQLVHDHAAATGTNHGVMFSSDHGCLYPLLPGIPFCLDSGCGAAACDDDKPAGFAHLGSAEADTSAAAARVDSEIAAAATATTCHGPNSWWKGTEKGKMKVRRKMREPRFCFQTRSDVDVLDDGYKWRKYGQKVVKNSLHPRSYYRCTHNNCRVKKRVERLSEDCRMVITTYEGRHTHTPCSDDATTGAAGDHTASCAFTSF

The results in this text go back to article PMC7819943, “Rice protein-binding microarrays: a tool to detect cis-acting elements near promoter regions in rice”.

The experiment addresses OsWRKY34 (Oryza sativa, UniProt Q0JBA9 1-250). The experiment can be described thus: protein-binding microarray (RPBM); PBS, 2% BSA, 51.3 ng/ul salmon testes DNA, 50 uM zinc acetate, 200 nM TF, 25 C, 1 h; high values mean tight binding. As to conditions: protein: recombinant; tags: N-terminal polyhistidine and DsRed monomer fusion (pET32a); label: CyDye5-dUTP incorporated in the synthesized complementary strand; 3' TTTTT single-stranded linker to array surface; dsDNA, one strand shown. The method in brief: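 Ni–NTA purification followed expression in E. coli BL21-CodonPlus of transcription factors fused N-terminally to a polyhistidine tag and DsRed. At 200 nM in PBS with 2% BSA, salmon testes DNA and 50 µM zinc acetate, the protein was incubated for 1 h at 25 °C with a custom Agilent array that had been primer-extended with Cy5-dUTP and blocked with 2% BSA. After washing, the array was read on an Axon 4000B scanner. The binding signal is per-feature fluorescence intensity in arbitrary units.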
In the case of “CCCTCTTCTCCTTTGCTTGGTCTCGTTTCGTCGCTGTCGTCGGAGTCACCTAGTGCAG”, the binding signal was 8260 fluorescence intensity (a.u.).

Consider “AGTCGTCCTCTATTCCTCTTGTCTTTCTTCAATTGTTATTCGGAGTCACCTAGTGCAG”, for which the binding signal was 10700 fluorescence intensity (a.u.).

With “TACACGTTATACGTGTGTCTGGTTGGGGAAATTTTAGGAACGGAGTCACCTAGTGCAG”, the binding signal was 9830 fluorescence intensity (a.u.).

Turning to “GCCGCGCCGTCCTCTTCATCTGCACTTGCACTGCGCCATGCGGAGTCACCTAGTGCAG”, the binding signal is 12200 fluorescence intensity (a.u.).

On to “CCCGTCTCTCCTCCTGATCGCTCGTTGTTGTCTCTTCTCGCGGAGTCACCTAGTGCAG”, for which the binding signal is 9090 fluorescence intensity (a.u.).

In the case of “CCTTTTTGTTTCTGTTTCTTCTGTTGTAAACAAACCCTTACGGAGTCACCTAGTGCAG”, the binding signal was 13100 fluorescence intensity (a.u.).

Take “GTTGGTGGTGGTGGTGGTAGCTTTGGGGCGTTTGGCTCGGCGGAGTCACCTAGTGCAG”: the binding signal was 15800 fluorescence intensity (a.u.).

In the case of “CCCGGATTTTTTTTGGATCGGACTGATTTGTTTTTTTTTTCGGAGTCACCTAGTGCAG”, the binding signal is 8860 fluorescence intensity (a.u.).

“TGTTCTGTTCATAGTCAGTCGCGTCTTCTTGTATTGGTTTCGGAGTCACCTAGTGCAG”: the binding signal is 10000 fluorescence intensity (a.u.).

On to “TGACATATTATTTCCTTTTATTTGCATAGAATTGACATTACGGAGTCACCTAGTGCAG”, for which the binding signal was 8380 fluorescence intensity (a.u.).

Turning to “ATCCCCTTTCTATGTAACTGCAGGGCAATTTCGTCTGGTCCGGAGTCACCTAGTGCAG”, the binding signal is 8510 fluorescence intensity (a.u.).

For the sequence “ATTTCCACCTGCTCATCTATATCTATCTATCATCAAGCTGCGGAGTCACCTAGTGCAG”, the binding signal is 8380 fluorescence intensity (a.u.).

As for “ATCACGCCAGTCACCACGCTTGGCATATGCTGGTAAATATCGGAGTCACCTAGTGCAG”, the binding signal was 8130 fluorescence intensity (a.u.).

Turning to “GACTCTCCCCATTGTGTCACATGGGCCTTTTGCTTTGTGACGGAGTCACCTAGTGCAG”, the binding signal is 10300 fluorescence intensity (a.u.).

Consider “TTTGCTCAGAGAGAGGCCCAATCCGTGTCAATATTTGTCCCGGAGTCACCTAGTGCAG”, for which the binding signal is 8530 fluorescence intensity (a.u.).

Take “CCTTCGCTCGCCACGTGGCAGCCGCTAGTCCTTATCGCCGCGGAGTCACCTAGTGCAG”: the binding signal was 10300 fluorescence intensity (a.u.).

For the sequence “CCTCGACCTCAGCAAGAACAACCTCTCCGGCGCGATCCCCCGGAGTCACCTAGTGCAG”, the binding signal was 9010 fluorescence intensity (a.u.).

For “TTGCTACTTACAAATACTACTTTTTTTCTCTTTCTTTTTTCGGAGTCACCTAGTGCAG”, the binding signal is 12400 fluorescence intensity (a.u.).

As for “TTCGCCATCCGTAATTCCGGTTTCTTCTGCGCAACACCAACGGAGTCACCTAGTGCAG”, the binding signal was 8400 fluorescence intensity (a.u.).

For the sequence “AAGTCACCTCCTTTCTCTTTGCTTTTCTTCACTCCGAAATCGGAGTCACCTAGTGCAG”, the binding signal was 8240 fluorescence intensity (a.u.).

Turning to “ATATATATATATATATATAGTCAAACATATCCCATGAATACGGAGTCACCTAGTGCAG”, the binding signal was 9320 fluorescence intensity (a.u.).

Consider “ATCTTTTCACTTTTCACTTTAGACTAGGTAACTTTGCCTTCGGAGTCACCTAGTGCAG”, for which the binding signal was 8490 fluorescence intensity (a.u.).

Turning to “ACATTCCAGGGCTCCCATCAGTTGCCATTTTACCTAAAATCGGAGTCACCTAGTGCAG”, the binding signal was 9040 fluorescence intensity (a.u.).

As to “ATTCATATAACCATGTCCTTATTATGTCATGTTTGGATTGCGGAGTCACCTAGTGCAG”, the binding signal was 8360 fluorescence intensity (a.u.).

“GTTTTACACATGCATTCCTGTCAGAATCCTACGTTTTTTCCGGAGTCACCTAGTGCAG”: the binding signal is 8120 fluorescence intensity (a.u.).

Take “AGCCACTGCATCATTTCATTTCTGCGCTCCTCATCTACTACGGAGTCACCTAGTGCAG”: the binding signal was 12700 fluorescence intensity (a.u.).

Consider “CACACCAACGTTTTCTTTGTGCAGACACATTCTTACATGTCGGAGTCACCTAGTGCAG”, for which the binding signal was 10500 fluorescence intensity (a.u.).

For the sequence “GACTTTGACCATTAAGCTTTGAAATGATGGCTTTCTTTGACGGAGTCACCTAGTGCAG”, the binding signal is 8670 fluorescence intensity (a.u.).

Regarding “CGCCGAGGGGAGGGGAGGGGAGGTTGCCATTGTTGTCCATCGGAGTCACCTAGTGCAG”, the binding signal is 22000 fluorescence intensity (a.u.).

Regarding “AATGGATCTGCCACTGCCAACCCAGTATCCCATAATTCCTCGGAGTCACCTAGTGCAG”, the binding signal is 10400 fluorescence intensity (a.u.).

In the case of “AGGCAATATTTGGAAAATCCTATGCTGGTTCTGTTGTTGTCGGAGTCACCTAGTGCAG”, the binding signal was 8410 fluorescence intensity (a.u.).

For “AACATATCCACTGGTATCCATCCACCTGCCCCACGGTTTCCGGAGTCACCTAGTGCAG”, the binding signal was 9520 fluorescence intensity (a.u.).

In the case of “TTTTCCGCCTCGTCTTTTCGCTTATGCTTATATTTATCAGCGGAGTCACCTAGTGCAG”, the binding signal was 12100 fluorescence intensity (a.u.).

For the sequence “TCGGGGTTGGGCGATATACCGAAATTTCGGTCCAAAATTTCGGAGTCACCTAGTGCAG”, the binding signal is 13300 fluorescence intensity (a.u.).

Consider “TCCCGTCATTCCACGCGAGCCCGAGTTGCACGGCACCACCCGGAGTCACCTAGTGCAG”, for which the binding signal is 8850 fluorescence intensity (a.u.).

Consider “TTTCTTCCACGCCTCTTGGGTCGATGATTTTTTCCCGGACCGGAGTCACCTAGTGCAG”, for which the binding signal is 10500 fluorescence intensity (a.u.).

Take “AGGTCTGGCCATTCATCCATTTTGTTTTCTGGCGAGCCAGCGGAGTCACCTAGTGCAG”: the binding signal was 8920 fluorescence intensity (a.u.).

With “TCCGACCTTTGCATCGTGCGAGCCTCAAACCCGCGAACCCCGGAGTCACCTAGTGCAG”, the binding signal was 9300 fluorescence intensity (a.u.).

For “TACGAGATTCTGTATGTTGTATATCCAGGTGTGTATTCTTCGGAGTCACCTAGTGCAG”, the binding signal was 8610 fluorescence intensity (a.u.).

As to “GCAACCTCTACCTCAATGTGTCGTGTCACACCGGAGCTCTCGGAGTCACCTAGTGCAG”, the binding signal was 8640 fluorescence intensity (a.u.).

For “CCTGTCCATGATCCATCCATCCATTGCATGTACTACACCCCGGAGTCACCTAGTGCAG”, the binding signal was 9020 fluorescence intensity (a.u.).

For “ATTTTTAACAAGTGTTTTCTCTCTGACAAGCCAGCTGCACCGGAGTCACCTAGTGCAG”, the binding signal is 8370 fluorescence intensity (a.u.).
